These are literature values, as cited in publication PMC2843925 (ACS chemical neuroscience, 2010).

Structures are written as SMILES.

The target in this data set is DAT. The note with it: known DAT ligands; ref Ukairo et al. ([12]); cited from earlier work.

For the compound `CN1[C@@H]2CC[C@@H]1CC(OC(c1ccccc1)c1ccccc1)C2` (stereo partly drawn) [Benztropine, (1R,5R)-3-benzhydryloxy-8-methyl-8-azabicyclo[3.2.1]octane], the “E pKi (experimental pKi)” value is 6.90.
